PubChem BioAssay AID1224827 | NIAID – 2016

- Assay: 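Identify regulators of the macrophage TNF-alpha response to bacterial LPS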 (follow-up of hits)
- System: RAW264.7 G9 mouse macrophage reporter clone
- Knock-down reagent: single siRNA against mouse genes, 100 nM siRNA
- Time to read-out: siRNA for 2 days, then LPS about 16 h
- Challenge: bacterial lipopolysaccharide (LPS), 10 ng/ml, cells fixed after overnight (about 16 h) stimulation
- Detection: 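Imaged nuclear TNF reporter intensity, background removed, scaled per plate and to non-targeting control wells, as z-scores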
- Reading the numbers: TNF reporter z-score, mean: higher = stronger Tnf promoter reporter signal
- Rule for the call: 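An siRNA is called active when its mean z-score over replicates is at least +2 or at most -2; control wells get no call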
The deposit covers about 3,800 reagents; below is a part drawn at random. Over the whole deposit, about 2,200 (57%) were called active. 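Active means a strong reporter change in either direction; calls are per siRNA, not per gene; qiagen siRNAs gave weaker effects.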 Reagents against one gene are numbered here. Further read-outs or replicates are left out here.

Silencing of Spp2 #1 resulted in: TNF reporter z-score, mean -0.303; inactive. Spp2 #2 scored TNF reporter z-score, mean -3.13; active. After knock-down of Spp2 #3, the record shows TNF reporter z-score, mean -4.86; active. With knock-down of Or5d43 #1, the record shows TNF reporter z-score, mean 2.12; active. After knock-down of Or5d43 #2, the screen gave TNF reporter z-score, mean 0.083; inactive. Silencing of Or5d43 #3 resulted in: TNF reporter z-score, mean -2.15; active.

Or5d43 #4 showed TNF reporter z-score, mean 4.66; active. Against Or5d43 #5 the deposit lists TNF reporter z-score, mean 1.62; inactive. With knock-down of Or5d43 #6, the record shows TNF reporter z-score, mean 1.42; inactive. With knock-down of Taf12 #1, the screen gave TNF reporter z-score, mean -2.33; active. Taf12 #2 showed TNF reporter z-score, mean -2.52; active. Against Taf12 #3 the deposit lists TNF reporter z-score, mean -3.82; active.

6030452D12Rik #1 gave TNF reporter z-score, mean 1.58; inactive. After knock-down of 6030452D12Rik #2, the screen gave TNF reporter z-score, mean -3.19; active. After knock-down of 6030452D12Rik #3, the screen gave TNF reporter z-score, mean -3.83; active. Depletion of 6030452D12Rik #4 gave: TNF reporter z-score, mean 3.01; active. For 6030452D12Rik #5, the values are TNF reporter z-score, mean 0.516; inactive. With knock-down of 6030452D12Rik #6, the record shows TNF reporter z-score, mean -1.4; inactive.

Depletion of Brs3 #1 gave: TNF reporter z-score, mean 2.09; active. For Brs3 #2, the values are TNF reporter z-score, mean -1.48; inactive. Brs3 #3 scored TNF reporter z-score, mean -3.17; active. With knock-down of Brs3 #4, the record shows TNF reporter z-score, mean 2.27; active. Brs3 #5 gave TNF reporter z-score, mean 0.0986; inactive. For Brs3 #6 the deposit lists TNF reporter z-score, mean -1.03; inactive.

After knock-down of Rpsa #1, the screen gave TNF reporter z-score, mean 0.342; inactive. After knock-down of Rpsa #2, the screen gave TNF reporter z-score, mean -1.88; inactive. For Rpsa #3 the deposit lists TNF reporter z-score, mean -3.26; active. Depletion of Rpsa #4 came out at: TNF reporter z-score, mean 3.66; active. Rpsa #5 showed TNF reporter z-score, mean -0.151; inactive. Rpsa #6 gave TNF reporter z-score, mean -3.54; active.

For Was #1 the deposit lists TNF reporter z-score, mean 4.39; active. With knock-down of Was #2, the record shows TNF reporter z-score, mean -3.17; active. For Was #3 the deposit lists TNF reporter z-score, mean -3.23; active. Was #4 showed TNF reporter z-score, mean -1.12; inactive. Was #5 showed TNF reporter z-score, mean -1.77; inactive. With knock-down of Was #6, the record shows TNF reporter z-score, mean -1.62; inactive.

Copied from above (5 entries):
Taf12 #2 → TNF reporter z-score, mean = -2.52; outcome = active
Taf12 #3 → TNF reporter z-score, mean = -3.82; outcome = active
6030452D12Rik #1 → TNF reporter z-score, mean = 1.58; outcome = inactive
6030452D12Rik #2 → TNF reporter z-score, mean = -3.19; outcome = active
6030452D12Rik #3 → TNF reporter z-score, mean = -3.83; outcome = active
